According to article doi:10.1101/775536:
Results are given in words; binding and its absence hold for the method and conditions named. In cells and extracts the contact can be indirect. A result given as binding can be weak or reduced; the word gives no strength. For part of these data: Sequences can lack the tags named with a protein. Values belong to the molecule of their own block, whether it stands above or below them.

Amino acid sequences for entries named in this document (tags omitted).
UniProt A0A0H2ZQL5: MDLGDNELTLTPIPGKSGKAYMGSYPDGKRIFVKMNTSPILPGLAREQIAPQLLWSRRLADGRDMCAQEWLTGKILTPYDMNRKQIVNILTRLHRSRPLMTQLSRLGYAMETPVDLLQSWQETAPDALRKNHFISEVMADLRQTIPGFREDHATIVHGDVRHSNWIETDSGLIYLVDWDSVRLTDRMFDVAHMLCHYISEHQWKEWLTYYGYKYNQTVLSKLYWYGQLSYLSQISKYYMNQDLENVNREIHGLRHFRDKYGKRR
UniProt A0ACD7PQ13: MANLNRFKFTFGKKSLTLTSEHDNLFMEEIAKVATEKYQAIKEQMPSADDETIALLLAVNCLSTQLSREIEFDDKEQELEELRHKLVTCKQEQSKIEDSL

Experiments:
[1] = target: CcrZ-LgBit (S. pneumoniae D39V); test: split reporter
[2] = target: DnaA (split-luciferase fusion) (S. pneumoniae); test: split reporter

binding [1]: binds weakly
Molecule: CcrZ-LgBit (from UniProt A0A0H2ZQL5 1-264)

binding [1]: binds weakly
Molecule: ZapA fused to SmBit (from UniProt A0ACD7PQ13 1-100)

binding [2]: binds
B1: YabA (split-luciferase fusion) (protein, UniProt B1IBA4 1-105)
chain: MDKKELFDALDDFSQQLLVTLADVEAIKKNLKSLVEENTALRLENSKLRERLGEVEADAPVKAKHVRESVRRIYRDGFHVCNDFYGQRREQDEECMFCDELLYRE
